Drawing on PMC12658286, this text covers binding for 2 substances.

The chains behind the UniProt entries cited, without tags or fusion partners. Residues count along the entry.
UniProt Q9NZQ7, residues 19-290: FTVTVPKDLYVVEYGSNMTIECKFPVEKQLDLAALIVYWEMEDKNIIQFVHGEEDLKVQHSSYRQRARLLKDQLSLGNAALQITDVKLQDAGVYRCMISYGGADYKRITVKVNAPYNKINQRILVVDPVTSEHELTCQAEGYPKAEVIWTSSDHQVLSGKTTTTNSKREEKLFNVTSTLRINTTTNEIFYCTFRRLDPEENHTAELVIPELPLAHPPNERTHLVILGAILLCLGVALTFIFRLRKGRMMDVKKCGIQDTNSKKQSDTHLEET
UniProt Q8N428: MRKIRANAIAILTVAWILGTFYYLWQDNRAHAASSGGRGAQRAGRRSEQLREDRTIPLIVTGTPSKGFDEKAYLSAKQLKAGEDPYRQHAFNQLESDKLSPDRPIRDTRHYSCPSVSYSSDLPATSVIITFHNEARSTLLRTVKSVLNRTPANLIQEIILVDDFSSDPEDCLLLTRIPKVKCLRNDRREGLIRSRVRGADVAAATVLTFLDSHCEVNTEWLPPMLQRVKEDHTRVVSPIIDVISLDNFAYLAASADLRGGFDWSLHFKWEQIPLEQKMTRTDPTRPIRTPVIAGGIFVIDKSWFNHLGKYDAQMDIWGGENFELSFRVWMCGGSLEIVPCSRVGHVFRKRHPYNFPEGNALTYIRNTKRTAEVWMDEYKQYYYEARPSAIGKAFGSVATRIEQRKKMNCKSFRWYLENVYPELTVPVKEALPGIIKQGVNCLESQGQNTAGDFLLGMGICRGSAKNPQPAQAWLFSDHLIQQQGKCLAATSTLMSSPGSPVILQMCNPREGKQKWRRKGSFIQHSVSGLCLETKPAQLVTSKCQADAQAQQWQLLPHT

Assay [1] addresses Flag‐tagged PD‐L1 (programmed death ligand‐1), wild type (UniProt Q9NZQ7). The assay can be described thus: co-IP; HepG2 and PLC/PRF/5 cells transfected with GALNT16‐HA and PD‐L1‐Flag for 48 h; lysates incubated with FLAG‐ or HA‐conjugated magnetic beads at room temperature for 2 h; anti‐Flag immunoprecipitates blotted for HA, anti‐HA immunoprecipitates blotted for Flag.
Assay [2] concerns the target HA‐tagged GALNT16 (polypeptide N‐acetylgalactosaminyltransferase 16) (UniProt Q8N428). The assay is described as above.

These are yes or no findings as the source states them, for the method shown. In cells and extracts the contact can be indirect. Some results given as binding are weak or reduced against the parent protein; the word gives no strength.

For the substance “HA‐tagged GALNT16 (polypeptide N‐acetylgalactosaminyltransferase 16) (from UniProt Q8N428 1-558) (enzyme)”, in assay [1], the binding result is recorded as “binds”.

Consider “Flag‐tagged PD‐L1 (programmed death ligand‐1), wild type (from UniProt Q9NZQ7 19-290)”, for which the binding result in assay [2] was “binds”.
